Among the data in the supplement of paper PMC10849652 are log2 fold change values, retold here.

By UniProt entry, the sequences of proteins in these tests, tags left out. Where a name states a change or a piece, a line headed by the entry shows the natural chain unless it says otherwise.
UniProt Q16553: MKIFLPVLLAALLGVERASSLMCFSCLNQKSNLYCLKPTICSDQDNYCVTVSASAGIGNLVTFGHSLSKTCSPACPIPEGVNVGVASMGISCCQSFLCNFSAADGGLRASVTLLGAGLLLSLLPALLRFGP
UniProt Q9NQ48: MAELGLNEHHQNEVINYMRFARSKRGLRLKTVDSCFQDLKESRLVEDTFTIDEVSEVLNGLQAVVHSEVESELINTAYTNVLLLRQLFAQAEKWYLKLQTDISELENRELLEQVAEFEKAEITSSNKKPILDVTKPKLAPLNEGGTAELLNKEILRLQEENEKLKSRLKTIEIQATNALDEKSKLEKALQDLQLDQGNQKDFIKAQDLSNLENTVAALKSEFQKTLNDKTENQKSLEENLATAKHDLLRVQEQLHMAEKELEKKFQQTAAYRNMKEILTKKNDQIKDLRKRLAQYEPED
UniProt Q13257, whole entry, looked up: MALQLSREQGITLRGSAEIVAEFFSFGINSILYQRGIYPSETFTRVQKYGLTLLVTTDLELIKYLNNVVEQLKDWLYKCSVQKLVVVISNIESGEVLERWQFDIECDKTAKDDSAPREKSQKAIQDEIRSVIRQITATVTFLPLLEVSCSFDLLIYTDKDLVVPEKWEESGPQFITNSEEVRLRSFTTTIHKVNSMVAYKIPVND
UniProt Q99683: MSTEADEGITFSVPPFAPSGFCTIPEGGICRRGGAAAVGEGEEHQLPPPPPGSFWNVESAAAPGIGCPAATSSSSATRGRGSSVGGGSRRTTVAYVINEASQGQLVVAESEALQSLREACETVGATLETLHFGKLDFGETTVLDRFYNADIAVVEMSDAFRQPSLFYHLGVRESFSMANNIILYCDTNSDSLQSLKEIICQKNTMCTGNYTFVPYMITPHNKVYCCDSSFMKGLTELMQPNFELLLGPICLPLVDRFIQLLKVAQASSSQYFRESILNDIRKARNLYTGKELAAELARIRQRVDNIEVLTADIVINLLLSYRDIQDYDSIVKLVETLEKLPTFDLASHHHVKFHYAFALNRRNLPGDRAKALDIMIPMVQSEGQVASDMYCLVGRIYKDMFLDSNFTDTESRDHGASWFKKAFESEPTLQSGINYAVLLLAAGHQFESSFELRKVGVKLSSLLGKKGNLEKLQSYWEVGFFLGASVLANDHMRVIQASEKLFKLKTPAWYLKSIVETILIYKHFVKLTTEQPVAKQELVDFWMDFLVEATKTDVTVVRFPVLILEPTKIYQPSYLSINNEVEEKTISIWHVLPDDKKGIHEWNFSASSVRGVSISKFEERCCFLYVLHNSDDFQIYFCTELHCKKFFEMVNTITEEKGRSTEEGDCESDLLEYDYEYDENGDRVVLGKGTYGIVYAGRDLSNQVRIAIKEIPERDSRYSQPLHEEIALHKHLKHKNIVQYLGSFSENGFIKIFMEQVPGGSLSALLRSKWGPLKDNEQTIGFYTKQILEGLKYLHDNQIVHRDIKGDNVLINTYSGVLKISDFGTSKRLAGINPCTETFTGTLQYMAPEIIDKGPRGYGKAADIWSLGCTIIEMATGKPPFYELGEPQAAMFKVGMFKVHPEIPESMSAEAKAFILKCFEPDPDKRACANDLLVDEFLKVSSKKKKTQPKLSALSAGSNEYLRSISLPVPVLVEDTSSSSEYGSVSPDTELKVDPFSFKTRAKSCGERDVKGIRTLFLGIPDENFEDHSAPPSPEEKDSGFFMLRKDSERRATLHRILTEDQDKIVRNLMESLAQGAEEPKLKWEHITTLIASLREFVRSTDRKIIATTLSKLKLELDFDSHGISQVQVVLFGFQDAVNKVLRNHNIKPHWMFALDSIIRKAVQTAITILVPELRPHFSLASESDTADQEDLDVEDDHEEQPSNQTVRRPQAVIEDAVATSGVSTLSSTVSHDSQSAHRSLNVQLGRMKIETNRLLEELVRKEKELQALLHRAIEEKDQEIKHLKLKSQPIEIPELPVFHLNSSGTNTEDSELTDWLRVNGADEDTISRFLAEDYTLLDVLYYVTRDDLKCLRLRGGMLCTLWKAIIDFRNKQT
UniProt Q8WV07: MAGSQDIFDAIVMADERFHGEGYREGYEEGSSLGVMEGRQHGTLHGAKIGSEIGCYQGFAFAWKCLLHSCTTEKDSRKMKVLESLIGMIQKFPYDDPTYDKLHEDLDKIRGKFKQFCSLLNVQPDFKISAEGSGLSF
UniProt Q9UPY8, whole entry, looked up: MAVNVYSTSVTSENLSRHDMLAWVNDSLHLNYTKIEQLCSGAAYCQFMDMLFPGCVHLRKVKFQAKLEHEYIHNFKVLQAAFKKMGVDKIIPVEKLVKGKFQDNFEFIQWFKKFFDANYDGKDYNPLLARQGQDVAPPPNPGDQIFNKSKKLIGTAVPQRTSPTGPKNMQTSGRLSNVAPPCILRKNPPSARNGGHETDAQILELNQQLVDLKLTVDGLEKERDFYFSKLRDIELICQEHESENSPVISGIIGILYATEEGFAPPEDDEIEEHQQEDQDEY
UniProt Q8N2S1: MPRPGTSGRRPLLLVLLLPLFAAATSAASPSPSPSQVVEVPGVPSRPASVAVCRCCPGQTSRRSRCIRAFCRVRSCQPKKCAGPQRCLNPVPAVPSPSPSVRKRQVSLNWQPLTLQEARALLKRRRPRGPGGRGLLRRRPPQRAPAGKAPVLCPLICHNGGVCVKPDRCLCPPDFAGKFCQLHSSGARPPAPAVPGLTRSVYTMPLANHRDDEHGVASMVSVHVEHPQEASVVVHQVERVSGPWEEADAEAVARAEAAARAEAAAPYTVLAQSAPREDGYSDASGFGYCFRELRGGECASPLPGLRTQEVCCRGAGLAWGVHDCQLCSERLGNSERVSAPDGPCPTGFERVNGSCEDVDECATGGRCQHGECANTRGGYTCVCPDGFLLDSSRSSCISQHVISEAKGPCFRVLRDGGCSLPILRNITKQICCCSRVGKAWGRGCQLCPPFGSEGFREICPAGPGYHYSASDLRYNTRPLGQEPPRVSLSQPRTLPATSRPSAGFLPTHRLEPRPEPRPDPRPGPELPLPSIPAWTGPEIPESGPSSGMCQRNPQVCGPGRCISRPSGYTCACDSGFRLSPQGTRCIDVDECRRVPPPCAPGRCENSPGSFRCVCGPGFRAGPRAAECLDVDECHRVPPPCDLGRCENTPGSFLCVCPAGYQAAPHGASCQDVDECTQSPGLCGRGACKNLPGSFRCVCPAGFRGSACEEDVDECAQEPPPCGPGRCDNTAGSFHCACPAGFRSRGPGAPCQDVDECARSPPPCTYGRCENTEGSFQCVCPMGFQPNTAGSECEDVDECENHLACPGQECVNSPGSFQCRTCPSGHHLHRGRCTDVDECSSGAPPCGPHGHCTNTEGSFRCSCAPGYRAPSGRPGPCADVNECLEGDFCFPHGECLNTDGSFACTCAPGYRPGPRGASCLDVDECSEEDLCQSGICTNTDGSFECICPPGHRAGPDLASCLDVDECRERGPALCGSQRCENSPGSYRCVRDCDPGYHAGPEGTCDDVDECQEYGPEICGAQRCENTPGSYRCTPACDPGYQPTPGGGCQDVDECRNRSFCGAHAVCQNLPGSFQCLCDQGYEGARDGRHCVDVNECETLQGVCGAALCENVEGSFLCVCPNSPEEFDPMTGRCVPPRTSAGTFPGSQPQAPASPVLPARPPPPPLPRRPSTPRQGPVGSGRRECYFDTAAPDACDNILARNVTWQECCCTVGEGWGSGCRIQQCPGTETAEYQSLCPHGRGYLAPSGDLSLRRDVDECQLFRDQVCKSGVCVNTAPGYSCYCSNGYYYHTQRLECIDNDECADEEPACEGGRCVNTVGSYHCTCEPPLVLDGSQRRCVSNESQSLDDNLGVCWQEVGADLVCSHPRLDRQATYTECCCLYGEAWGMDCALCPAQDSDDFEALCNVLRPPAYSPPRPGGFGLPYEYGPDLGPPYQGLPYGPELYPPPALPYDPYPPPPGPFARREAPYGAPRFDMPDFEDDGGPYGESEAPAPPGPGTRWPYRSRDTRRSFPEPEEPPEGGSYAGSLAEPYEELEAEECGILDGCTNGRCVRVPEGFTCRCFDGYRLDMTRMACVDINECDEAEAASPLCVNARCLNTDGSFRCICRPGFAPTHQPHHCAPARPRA
UniProt Q9NQG1: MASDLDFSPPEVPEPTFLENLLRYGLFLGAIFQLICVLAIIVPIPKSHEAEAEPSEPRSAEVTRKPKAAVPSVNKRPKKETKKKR
UniProt Q92585: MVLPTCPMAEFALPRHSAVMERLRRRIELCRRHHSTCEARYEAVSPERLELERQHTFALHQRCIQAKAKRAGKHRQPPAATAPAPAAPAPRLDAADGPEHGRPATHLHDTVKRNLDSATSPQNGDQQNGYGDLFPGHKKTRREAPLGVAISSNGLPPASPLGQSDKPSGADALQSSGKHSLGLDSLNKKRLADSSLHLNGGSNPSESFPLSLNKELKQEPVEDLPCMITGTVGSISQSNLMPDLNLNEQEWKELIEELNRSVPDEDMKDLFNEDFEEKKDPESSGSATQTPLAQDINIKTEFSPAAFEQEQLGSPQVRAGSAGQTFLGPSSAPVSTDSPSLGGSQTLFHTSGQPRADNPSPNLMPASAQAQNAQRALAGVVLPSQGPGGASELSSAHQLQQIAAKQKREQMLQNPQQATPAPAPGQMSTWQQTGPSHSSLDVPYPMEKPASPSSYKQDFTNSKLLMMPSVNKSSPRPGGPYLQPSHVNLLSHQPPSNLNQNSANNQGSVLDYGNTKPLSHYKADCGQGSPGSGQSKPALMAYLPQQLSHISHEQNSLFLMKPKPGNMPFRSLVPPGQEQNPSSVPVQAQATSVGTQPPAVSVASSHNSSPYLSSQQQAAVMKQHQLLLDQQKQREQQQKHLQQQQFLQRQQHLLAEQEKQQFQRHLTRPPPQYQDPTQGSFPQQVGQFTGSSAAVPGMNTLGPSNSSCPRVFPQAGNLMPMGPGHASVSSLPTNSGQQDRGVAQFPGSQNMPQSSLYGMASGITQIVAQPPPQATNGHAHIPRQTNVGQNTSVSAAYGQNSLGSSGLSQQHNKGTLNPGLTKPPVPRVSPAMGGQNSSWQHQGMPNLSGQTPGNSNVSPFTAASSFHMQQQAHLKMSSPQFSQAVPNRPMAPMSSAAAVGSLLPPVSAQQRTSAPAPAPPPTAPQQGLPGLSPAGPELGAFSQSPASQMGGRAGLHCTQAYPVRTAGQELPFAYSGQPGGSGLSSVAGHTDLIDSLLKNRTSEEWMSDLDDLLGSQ
UniProt P53778: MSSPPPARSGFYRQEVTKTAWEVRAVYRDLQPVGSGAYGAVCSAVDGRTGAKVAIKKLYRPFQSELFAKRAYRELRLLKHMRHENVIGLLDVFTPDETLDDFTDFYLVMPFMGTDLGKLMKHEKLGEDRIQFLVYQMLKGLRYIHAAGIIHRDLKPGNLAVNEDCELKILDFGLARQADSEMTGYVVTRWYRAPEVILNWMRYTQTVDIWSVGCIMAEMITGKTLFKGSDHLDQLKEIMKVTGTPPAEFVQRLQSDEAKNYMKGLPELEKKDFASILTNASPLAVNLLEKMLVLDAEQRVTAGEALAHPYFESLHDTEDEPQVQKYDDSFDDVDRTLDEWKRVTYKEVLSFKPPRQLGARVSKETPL
UniProt Q9Y2E5: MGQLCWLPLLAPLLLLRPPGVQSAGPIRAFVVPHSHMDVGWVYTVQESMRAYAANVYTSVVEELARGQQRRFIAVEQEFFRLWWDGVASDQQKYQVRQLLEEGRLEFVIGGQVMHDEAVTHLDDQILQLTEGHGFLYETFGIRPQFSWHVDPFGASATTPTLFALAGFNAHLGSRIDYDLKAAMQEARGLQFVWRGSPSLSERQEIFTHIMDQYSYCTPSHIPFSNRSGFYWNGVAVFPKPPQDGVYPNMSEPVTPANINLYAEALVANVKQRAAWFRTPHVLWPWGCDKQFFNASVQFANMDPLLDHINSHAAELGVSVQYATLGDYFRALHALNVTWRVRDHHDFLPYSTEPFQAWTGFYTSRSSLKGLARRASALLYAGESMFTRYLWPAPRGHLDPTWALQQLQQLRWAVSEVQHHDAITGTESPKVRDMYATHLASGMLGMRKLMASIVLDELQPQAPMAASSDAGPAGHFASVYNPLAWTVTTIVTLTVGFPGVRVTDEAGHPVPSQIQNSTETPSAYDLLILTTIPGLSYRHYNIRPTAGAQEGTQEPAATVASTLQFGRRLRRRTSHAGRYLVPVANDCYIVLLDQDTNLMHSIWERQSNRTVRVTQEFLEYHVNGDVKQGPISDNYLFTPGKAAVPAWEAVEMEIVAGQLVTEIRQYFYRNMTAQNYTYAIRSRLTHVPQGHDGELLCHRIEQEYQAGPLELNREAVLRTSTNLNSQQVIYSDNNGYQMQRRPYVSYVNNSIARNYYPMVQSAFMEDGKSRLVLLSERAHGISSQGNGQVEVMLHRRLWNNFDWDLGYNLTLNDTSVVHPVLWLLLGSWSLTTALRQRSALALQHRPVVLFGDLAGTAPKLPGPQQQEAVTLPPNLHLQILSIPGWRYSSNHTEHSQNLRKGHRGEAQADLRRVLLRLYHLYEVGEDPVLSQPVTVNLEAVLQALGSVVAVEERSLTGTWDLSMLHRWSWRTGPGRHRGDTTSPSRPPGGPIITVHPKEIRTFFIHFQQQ

The list shows a part of the results.

Compound in the first experiment: CC(=O)c1cnc2ccc(-c3cc(Cl)c(O)c(Cl)c3)nc2c1N[C@H]1CC[C@H](CN(C)C)CC1
Kind of experiment: log2 fold change, soluble protein after heating vs DMSO (PISA); higher = thermal stabilisation; K562 lysate, 10 uM; active = over 0.2 and 3.5 SD of the protein, either way, in both replicates (recomputed). The gist of the method: (§1)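 A 30 min treatment with 10 μM compound was applied to crude K562 extract at 1 mg/mL protein in PBS pH 7.4 with 1 mM MgCl2. Heating for 3 min spanned 48°C-58°C, after which aliquots were pooled, adjusted to 0.5% NP-40 at 4°C and spun at 21,000xg for 90 min. TMTpro 16plex LC-MS/MS of the supernatant, with channel sums equalised, gave values recorded as log-two fold change in thermal stability against solvent controls, from duplicates.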
With LY6E (UniProt Q16553), the log2 fold change was inactive: 0.028.

LZTFL1 (UniProt Q9NQ48): the log2 fold change is inactive: -0.002.

With M6PR (UniProt P20645), the log2 fold change is inactive: 0.006.

On to MAD2L1 (UniProt Q13257), for which the log2 fold change was inactive: -0.003.

Compound in another experiment: CC(C)(C)Cn1c(N)nc2ccc(-c3[nH]c(C(C)(C)C)nc3-c3ccc(F)cc3)nc21 [ralimetinib]
The description is as above. In short, it runs like this: as §1
Turning to LUC7L3 (UniProt O95232), the log2 fold change was inactive: -0.002.

With MAP3K5 (UniProt Q99683), the log2 fold change is inactive: 0.056.

Consider MACF1, A0A0A6YYJ5, for which the log2 fold change is inactive: -0.014.

In the case of MAP4K3 (UniProt Q8IVH8), the log2 fold change was inactive: -0.077.

For LTO1 (UniProt Q8WV07), the log2 fold change was inactive: 0.026.

As for MANEA (UniProt Q5SRI9), the log2 fold change is inactive: 0.024.

In the case of MAPRE3 isoform 2 (UniProt Q9UPY8), the log2 fold change was inactive: -0.119.

With LTBP4 (UniProt Q8N2S1), the log2 fold change is inactive: 0.135.

With MANBAL (UniProt Q9NQG1), the log2 fold change was inactive: -0.002.

As for MAP4K2 (UniProt Q12851), the log2 fold change was inactive: -0.029.

Take MAST2 (UniProt Q6P0Q8): the log2 fold change is inactive: 0.033.

With MAGI3 isoform 1 (UniProt Q5TCQ9), the log2 fold change is inactive: 0.022.

In the case of MAML1 (UniProt Q92585), the log2 fold change is inactive: 0.025.

In the case of MAP4 isoform 5 (UniProt P27816), the log2 fold change is inactive: -0.1.

As for MAP4K5 (UniProt Q9Y4K4), the log2 fold change is inactive: 0.039.

Turning to MAPK12 (UniProt P53778), the log2 fold change is inactive: -0.001.

As for MARF1 (UniProt Q9Y4F3), the log2 fold change was inactive: 0.034.

For MAN2B2 (UniProt Q9Y2E5), the log2 fold change is inactive: 0.008.

As for MAP4 (UniProt E7EVA0), the log2 fold change was inactive: -0.038.
